Source: article PMC8121154, “The effects of pH and NaCl concentration on the structure of β‐casein from buffalo milk” (Food Science & Nutrition, 2021)
Results are given in words; binding and its absence hold for the method and conditions named.

Legend:
[1] = biological target: native β‐casein purified from buffalo milk (buffalo (purified from buffalo milk)) (UniProt Q9TSI0); test: dynamic light scattering; purified β‐CN in 10 mM sodium phosphate buffer pH 7.0 with 0.1 to 0.3 M NaCl, room temperature; both purified
[2] = biological target: native β‐casein purified from buffalo milk (buffalo (purified from buffalo milk)) (UniProt Q9TSI0); test: dynamic light scattering; purified β‐CN in 10 mM sodium phosphate buffer pH 7.0 with 10 mM NaCl, room temperature; particle size distribution 10 nm; both purified
[3] = biological target: native β‐casein purified from buffalo milk (buffalo (purified from buffalo milk)) (UniProt Q9TSI0); test: dynamic light scattering; purified β‐CN in 10 mM sodium phosphate buffer at its natural pH (series pH 5-7.5), room temperature; particle size distribution about 10 nm; both purified

B1: native β‐casein purified from buffalo milk (natural protein, buffalo (purified from buffalo milk), UniProt Q9TSI0 16-224, looked up)
chain: RELEELNVPGEIVESLSSSEESITHINKKIEKFQSEEQQQMEDELQDKIHPFAQTQSLVYPFPGPIPKSLPQNIPPLTQTPVVVPPFLQPEIMGVSKVKEAMAPKHKEMPFPKYPVEPFTESQSLTLTDVENLHLPLPLLQSWMHQPPQPLPPTVMFPPQSVLSLSQSKVLPVPQKAVPYPQRDMPIQAFLLYQEPVLGPVRGPFPIIV
notes: β‐casein of buffalo milk (water buffalo), native protein purified from milk; single band of approximately 25 kDa on SDS-PAGE; Native milk protein; also called β‐CN; buffalo β‐CN
Q: What does the source list for B1?
A: binding [1]: no binding (condition: with 0.1 to 0.3 M NaCl, pH 7.0); binding [2]: no binding (condition: in 10 mM NaCl, pH 7.0); binding [3]: no binding (condition: at its natural pH)
